# In patent US20100280125A1, “MEDICINAL AGENT” (priority 2004, published 2010):
# Some of these results come from one statement about several compounds together.
# System: “smooth” microsomes of cancer cells MCF-7 (mammary gland adeno carcinoma)
# Assay: concentration of cytochrome C with cancer cell microsomes
# Assay type: biochemical
# Details: MCF-7 cancer microsomes; 20 min at 25° C.; starting concentration 50 μM; dilutions 10^−5 and 10^−9 mmol/l
smiles,measurement,value
COc1cccc2c1C(=O)c1c(O)c3c(c(O)c1C2=O)C[C@@](O)(C(=O)CO)C[C@@H]3O[C@H]1C[C@H](N)[C@H](O)[C@H](C)O1 [adriamycin],concentration of cytochrome C,40 to 45 µM
